# Assay results from PubChem BioAssay AID1347423 (Functional Genomics Laboratory (NCATS/FGL), 2020).
# Screen size: about 52,000 sequences; about 210 (0.4%) were called active.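 Rule for the calls: active = gene whose silencing raises cell survival under the drug, median off-target-corrected z-score across its silencing RNAs 2 or more; inactive = the rest.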 This is one part of the list.
# Experiment: Resistance to Poly (ADP-Ribose) Polymerase inhibitor: Gene Identification via Genome-wide siRNA Screen
# Settings: mouse BRCA2 R2336H ES cells, olaparib, CellTiter-Glo viability; active compounds read high
# In short: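 Mouse BRCA2 R2336H ES cells were reverse-transfected with siRNA (20 nM final), treated at 48 h with 500 nM olaparib, and read by CellTiter-Glo after 72 h. Scores: MAD-based z per siRNA, median per gene, seed off-target correction.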
row,Sequence,z-score
1,GAGAUCAACUUGGUGACGGTT against Cacng7,inactive: -0.605
2,GGUUCGACUGAAAACUUUCTT against Vamp2,inactive: 1.03
3,GCAAACCUUCGGUCUUGCCTT against Cd5l,inactive: -0.277
4,GCCUCGUGAAUAAUUGAAATT against Ddt,inactive: 0.404
5,GGGUAUGAGUGCAGACUAUTT against Zcchc9,inactive: -3.34
6,GCAUAUCACAUCCGAAUACTT against Per1,inactive: 0.644
7,GGCUGUGGAUCUUCUCUGUTT against Magi1,inactive: -1.91
8,CCCAGUUGACAGGAGACCATT against Hps6,inactive: 0.169
9,GCAGUGUCAAAAAGAGCCATT against G930045G22Rik,inactive: -0.207
10,CGUAGAUGCUUCCAAGAUGTT against Ube2g2,inactive: 1.57
11,GGUUCACCACCUGCUACAATT against Pmf1,inactive: 0.186
12,CGUGGAAUGAAGAUUGUCCTT against Hsd17b12,inactive: 0.616
13,GGCUCAUGUAAGAUAAUUATT against Kcns3,inactive: -0.196
14,GGAUGUGGUGGUAUUAGACTT against 2900006B13Rik,inactive: 0.424
15,GGUGAAAUCUCUCUGGCCUTT against Panx3,inactive: -0.0251
16,CGAGUGAAAGACCAUAUAATT against D330038O06,inactive: -2.25
17,GGUUGAAGCCAUAAAGAAATT against G22p1,inactive: -0.478
18,GGCUCCUAUAUACUGAUCATT against Olfr1402,inactive: 0.0142
19,GGAUUUGAACAUAAGUGACTT against AU040829,inactive: -0.351
20,GGAGAAAAGGUACGUUGUUTT against Rem1,inactive: -0.627
21,GGAUGUGUGCAUCACGGGUTT against 1700018B08Rik,inactive: -1.39
22,GGAAAGUGUUUUCUCAUGATT against Bteb1,inactive: 0.573
23,GGUGUUUGGCUCACAAACCTT against Mmp23,inactive: -0.252

row,Sequence,z-score
1,GGCAACACCAUACAGUAUATT against Adh7,inactive: -0.841
2,CCUGAUCAGAGUCUUAGUATT against Espl1,inactive: -3.03
3,GGAAUCACUGGUAUUAUCGTT against Surf1,inactive: 1.29
4,GCACUAUGGGUGUCAUGGUTT against 2810468K17Rik,inactive: -2.75
5,GCAUGACAUGCAAAACUACTT against Abhd3,inactive: 0.276
6,GGUAUACGAACAUGUUUAUTT against Lin7c,inactive: 0.0415
7,GCAGUUAUCAGUCGUCAAUTT against Zfp334,inactive: -0.203
8,GGAAAUUGGCACCAUUACUTT against Siat4a,inactive: -1.48
9,GGCGACAAGCAACUUAUAATT against 9130411I17Rik,inactive: -0.967
10,GGUCACUGAACUGUUGCUGTT against Trpc7,inactive: 0.0527
11,CGUGUAAACGCAAUUAAAATT against BC066107,inactive: 0.132
12,GGUGUUAUUUUGAAGAAGATT against Arhgef10,inactive: 0.399
13,GGAGCUGAAAAUUGUUACCTT against Tpm2,inactive: -0.489
14,GGAUGGAAUUACAAGGGUUTT against Kif1b,inactive: -0.549
15,GGCUUAUCACAGGAAGAUCTT against Apg4c,inactive: 1.48
16,GGUCCUCUGGUUCAACAUUTT against Olfr638,inactive: -0.157
17,GCCUUUUUACAGCUCAGGUTT against LOC434179,inactive: -0.262
18,GGUAUUCUUCCUCCAUGGGTT against Olfr638,inactive: 0.359
19,GGAUAAGCAGUUCUCAAGCTT against Mef2a,inactive: 1.1
20,GGAAGCAUCCAGUGCUAUUTT against Kremen2,inactive: 0.563
21,GGGUGUUUUUAAGUGUCCCTT against A630056B21Rik,inactive: 1.39
22,GGACAGACUGAUUUACAAATT against 5330421F07Rik,inactive: 0.523
23,GGCAACAGCACCAGAAGGATT against Ccl19,inactive: -1.04

row,Sequence,z-score
1,CGAAGGGAUUGAUUUGACUTT against Kars,inactive: -2.06
2,GGUGAUAAGAUACAUAUCATT against Usp9x,inactive: -0.644
3,GGUCCUCAAGAUCUUUGUGTT against Extl1,inactive: -0.313
4,GGAGAAAAAUGAAAGAUCUTT against Grb14,inactive: 1.54
5,GGCCUCGUCAUUUUACAGGTT against Mcee,inactive: -0.412
6,GCAGUACUAAACCAGAUAUTT against 1200014J11Rik,inactive: -0.835
7,GCUUAAAAUUCGGUAAGGATT against Il17r,inactive: -0.191
8,GGGAUACCAUUAAUUAAAGTT against 3632451O06Rik,inactive: 0.122
9,GGAGUAGAAUGUAUUCAGATT against Ccng1,inactive: -0.0906
10,GGAUGAGGAAAAUGUGUCUTT against 2410012C07Rik,inactive: 0.563
11,GGUCCCAGUCAUUAUCCACTT against Gdap1l,inactive: 1.31
12,GGACUUGCUUUCUGAGAACTT against Zfp319,inactive: -1.09
13,GGCACAUCACUGCUUACCUTT against Rce1,inactive: -2.05
14,CCCUGUGUACAGAGAAAGGTT against Pabpnl1,inactive: -2.07
15,GCCUUCCAUACAUUUAACATT against Olfr311,inactive: -0.783
16,GGCCAUGUUGAGUAAGAAATT against Mmrn2,inactive: -1.62
17,GGCGAAUGCGCUUCUGAUATT against BC053393,inactive: 0.839
18,GCACUGACAUCAAAAAUACTT against Ddx31,inactive: 0.995
19,GGCAAAUGUGUUAUGUUUUTT against Rnf11,inactive: 0.664
20,CCAUCCAGCUUUCAUUAAATT against Hem1,inactive: 0.217
21,GGUGCUGCAUGUGAAGAUGTT against Crebl1,inactive: -0.29

# Quoted at random: four entries already listed.
row,Sequence,z-score
11,GGUUCACCACCUGCUACAATT against Pmf1,inactive: 0.186
20,GGAGAAAAGGUACGUUGUUTT against Rem1,inactive: -0.627
21,GGGUGUUUUUAAGUGUCCCTT against A630056B21Rik,inactive: 1.39
15,GGCUUAUCACAGGAAGAUCTT against Apg4c,inactive: 1.48
